According to PMC4476799, “Englerin A Agonizes the TRPC4/C5 Cation Channels to Inhibit Tumor Cell Line Proliferation” (PLoS ONE, 2015):
The source gives many values for each of these; only a part stands here.

System: cancer cell lines from the cancer cell line encyclopedia (CCLE)
Assay: Cell line profiling (CLiP) proliferation experiment
Assay type: cell-based
Set-up: ACTIVITY_AREA: scale not given here; AMAX: unit not given here
Protocol: Compound profiling experiment and data analysis was performed as previously described. Data was imported and plotted using the Tibco Spotfire DXP application. Lines were categorized as sensitive, intermediate and refractory as follows: Amax<-40 & Inflection Point <2 ~ Sensitive, Amax>-20 & Inflection Point >10 ~ Refractory, all else were called Intermediate. Cancer Cell line HG-U133 Plus 2 data was processed and normalized as described. […] Five sets of refractory cell lines were generated from the pool of refractory cell lines trying to match the lineage composition of the set of sensitive cell lines. The limma package was used as previously described to perform the statistical comparison.

[1] = MAVER-1 (haematopoietic_and_lymphoid_tissue)
[2] = MC116 (haematopoietic_and_lymphoid_tissue)
[3] = MEC-1 (haematopoietic_and_lymphoid_tissue)
[4] = MEG-01 (haematopoietic_and_lymphoid_tissue)
[5] = MOLM-13 (haematopoietic_and_lymphoid_tissue)
[6] = NCI-H82, lung, small_cell_carcinoma

In the case of `CC(C)[C@@]12C[C@@H](O)[C@@](C)(O1)[C@@H]1CC[C@@H](C)[C@H]1[C@@H]2OC(=O)/C=C/c1ccccc1` [Englerin B], the RESPONSE (Loucy (haematopoietic_and_lymphoid_tissue)) is reported as “INTERMEDIATE”, the ACTIVITY_AREA [1] is reported as 70.86 and the AMAX [1] is reported as -71.85. The RESPONSE [1] was “INTERMEDIATE”, the ACTIVITY_AREA (MB 157 (breast)) was 43.72 and the AMAX (MB 157 (breast)) was -47.98. The RESPONSE (MB 157 (breast)) was “INTERMEDIATE”, the ACTIVITY_AREA [2] was 38.31 and the AMAX [2] was -98.12. The RESPONSE [2] was “INTERMEDIATE”, the ACTIVITY_AREA (MCAS (ovary)) was 25.17 and the AMAX (MCAS (ovary)) was -38.75. The RESPONSE (MCAS (ovary)) was “INTERMEDIATE”, the ACTIVITY_AREA (MCF7 (breast)) was 67.04 and the AMAX (MCF7 (breast)) was -63.43. The RESPONSE (MCF7 (breast)) was “INTERMEDIATE”, the ACTIVITY_AREA (MCF7 cells) was 67.04 and the AMAX (MCF7 cells) was -63.43. The RESPONSE (MCF7 cells) was “INTERMEDIATE”, the ACTIVITY_AREA (MDA-MB-175-VII (breast)) was 21.43 and the AMAX (MDA-MB-175-VII (breast)) was -47.38. For the same compound, the RESPONSE (MDA-MB-175-VII (breast)) was “INTERMEDIATE”, the ACTIVITY_AREA (MDA-MB-231 (breast)) was 47.93 and the AMAX (MDA-MB-231 (breast)) was -44.39. For the same compound, the RESPONSE (MDA-MB-231 (breast)) was “INTERMEDIATE”, the ACTIVITY_AREA (MDA-MB-415 (breast)) was 19.79 and the AMAX (MDA-MB-415 (breast)) was -38.73. For the same compound, the RESPONSE (MDA-MB-415 (breast)) was “INTERMEDIATE”, the ACTIVITY_AREA (MDA-MB-436 (breast)) was 23.24 and the AMAX (MDA-MB-436 (breast)) was -4.48. For the same compound, the RESPONSE (MDA-MB-436 (breast)) was “REFRACTORY”, the ACTIVITY_AREA (MDA-MB-453 (breast)) was 54.06 and the AMAX (MDA-MB-453 (breast)) was -63.93. For the same compound, the RESPONSE (MDA-MB-453 (breast)) was “INTERMEDIATE”, the ACTIVITY_AREA (MDA-MB-468 (breast)) was 65.45 and the AMAX (MDA-MB-468 (breast)) was -47.74. For the same compound, the RESPONSE (MDA-MB-468 (breast)) was “INTERMEDIATE”, the ACTIVITY_AREA (MDA-MB-468 cells) was 65.45 and the AMAX (MDA-MB-468 cells) was -47.74. For the same compound, the RESPONSE (MDA-MB-468 cells) was “INTERMEDIATE”, the ACTIVITY_AREA (MDST8 (large_intestine)) was 21.88 and the AMAX (MDST8 (large_intestine)) was -37.05. For the same compound, the RESPONSE (MDST8 (large_intestine)) was “INTERMEDIATE”, the ACTIVITY_AREA [3] was 41.33 and the AMAX [3] was -58.42. The RESPONSE [3] was “INTERMEDIATE”, the ACTIVITY_AREA [4] was 20.16 and the AMAX [4] was -51.13. The RESPONSE [4] was “INTERMEDIATE”, the ACTIVITY_AREA (MEL-JUSO (skin)) was 85.15 and the AMAX (MEL-JUSO (skin)) was -17.8. For the same compound, the RESPONSE (MEL-JUSO (skin)) was “REFRACTORY”, the ACTIVITY_AREA (MFE-296 (endometrium)) was 30.54 and the AMAX (MFE-296 (endometrium)) was -63.15. The RESPONSE (MFE-296 (endometrium)) was “INTERMEDIATE”, the ACTIVITY_AREA (MIA PaCa-2 (pancreas)) was 21.84 and the AMAX (MIA PaCa-2 (pancreas)) was -45.2. For the same compound, the RESPONSE (MIA PaCa-2 (pancreas)) was “INTERMEDIATE”, the ACTIVITY_AREA (MKN7 (stomach)) was 17.73 and the AMAX (MKN7 (stomach)) was -33.53. For the same compound, the RESPONSE (MKN7 (stomach)) was “INTERMEDIATE”, the ACTIVITY_AREA (MKN-45 (stomach)) was 62.13 and the AMAX (MKN-45 (stomach)) was -32.27. The RESPONSE (MKN-45 (stomach)) was “INTERMEDIATE”, the ACTIVITY_AREA [5] was 49.89 and the AMAX [5] was -90.98. The RESPONSE [5] was “INTERMEDIATE”, the ACTIVITY_AREA (MV-4-11 cells) was 65.43 and the AMAX (MV-4-11 cells) was -93.67. For the same compound, the RESPONSE (MV-4-11 cells) was “INTERMEDIATE”, the ACTIVITY_AREA (Malme-3M (skin)) was 11.72 and the AMAX (Malme-3M (skin)) was 0.96. For the same compound, the RESPONSE (Malme-3M (skin)) was “REFRACTORY”, the ACTIVITY_AREA (Malme-3M cells) was 11.72 and the AMAX (Malme-3M cells) was 0.96. For the same compound, the RESPONSE (Malme-3M cells) was “REFRACTORY”, the ACTIVITY_AREA (NCI-H28, pleura, NS) was 68.28 and the AMAX (NCI-H28, pleura, NS) was -73.22. The RESPONSE (NCI-H28, pleura, NS) was “INTERMEDIATE”, the ACTIVITY_AREA [6] was 23.32 and the AMAX [6] was -87.52. For the same compound, the RESPONSE [6] was “INTERMEDIATE”, the ACTIVITY_AREA (NCI-H82 cells) was 23.32 and the AMAX (NCI-H82 cells) was -87.52. The RESPONSE (NCI-H82 cells) was “INTERMEDIATE” and the ACTIVITY_AREA (NCI-H146 cells) was 25.77.
